In PMC5672003:
No constants are given. Whether binding was seen depends on the method and setting. Binding can be weak; no strength is given.

Biological target: T1, …1 (Arabidopsis (endogenous in leaves)) (UniProt P32961)
T1 sequence: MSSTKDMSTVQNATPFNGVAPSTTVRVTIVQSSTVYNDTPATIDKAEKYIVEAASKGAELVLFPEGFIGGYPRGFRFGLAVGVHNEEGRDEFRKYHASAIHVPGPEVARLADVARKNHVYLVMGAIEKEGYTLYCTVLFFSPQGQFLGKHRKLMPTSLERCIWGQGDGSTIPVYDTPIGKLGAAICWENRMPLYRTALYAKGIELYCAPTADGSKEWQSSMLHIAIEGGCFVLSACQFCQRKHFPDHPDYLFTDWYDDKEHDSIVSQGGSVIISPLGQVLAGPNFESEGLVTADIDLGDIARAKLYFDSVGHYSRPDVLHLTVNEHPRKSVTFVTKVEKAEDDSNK
Test: SEC; protein correlation profiling: cholate-solubilized Arabidopsis leaf microsomal proteins on Superdex 200 10/300 GL or Superose 6 10 x 300 GL at 6 °C; 50 mM HEPES-KOH pH 7.8, 100 mM NaCl, 10 mM MgCl2, 5% glycerol, 0.1% sodium cholate; fractions quantified by label-free LC-MS/MS; two biological replicates

THIOREDEXOIN M-TYPE1 (Arabidopsis (endogenous in leaves))
binding: binds
